Test system: bovine serum proteins
Assay: Nonspecific adsorption of bovine serum proteins on peptide SAMs measured by SPR
Conditions: bovine serum 200-1200 s, then PBS
Procedure: The surface coverage for each monolayer was measured according to the change in response of the SPR sensor in PBS for the bare Au surface relative to the peptide-coated Au surface. To measure the formation of the monolayers, each SPR sensor was mounted on a custom-made SPR instrument in the Kretschmann configuration based on a dove prism with wavelength interrogation as previously described (Bolduc et al., 2009, supra). An Ocean Optics™ USB4000 fibre optic spectrometer ranging from 550 to 850 nm was used to acquire the spectral information processed with Matlab to obtain the SPR sensorgram. A 25 μL Teflon fluidic cell positioned on top of the SPR sensors was used to inject the solutions required to functionalize with the recognition element and detect the analytes of interest. The SPR response was acquired at a frequency of 1 Hz. The s-polarized reference was acquired in PBS buffer before monitoring a 5 minute baseline in p-polarization. PBS was replaced with crude bovine serum (76 mg/mL protein) for 20 minutes and rinsed with PBS for 5 minutes to quantify the amount of non-specifically adsorbed proteins.
The first part of the sensorgram is a reference measured while PBS is in contact with the surface of the SPR sensor covered with the 3-MPA-HHHDD-OH peptide. PBS is first injected over a period of 200 s in the SPR system. […] After 5 minutes, PBS is replaced with adult bovine serum. The instant shift of signal is due to the refractive index of the bulk solution (the refractive index of serum is greater than the refractive index of PBS). This shift is unrelated to the nonspecific adsorption of proteins. The more progressive increase of λSPR typical to a Langmuir-Blodgett model describing the evolution of interactions at a surface used to characterize the evolution of the nonspecific interaction with time. PBS buffer is then injected over the sensor to obtain a second reference, allowing the quantification of nonspecific proteins still attached at the surface of the sensor. A return to the initial λSPR value (i.e., the value prior to bovine serum injection), as shown in FIG. 1A (1200 s to 1600 s time frame) is indicative of an efficient SAM that reduces nonspecific interactions.
These values are lower than those measured in other types of monolayers, which typically range between 100 to 1000 ng/cm^2 (Luppa, P. B. et al. Clin. Chim. Acta 2001, 314: 1); Masson, J. F. et al. Talanta 2005, 67: 918; Masson, J. F. et al. Anal. Bioanal. Chem. 2006, 386: 1951; Bolduc, O. R. et al. Anal. Chem. 2009, 81: 6779; Bolduc, O. R. and Masson, J. F. Langmuir 2008, 24: 12085).

In the case of “3-MPA-HHHDD-OH (N-terminal 3-mercaptopropionic acid)”, the “Shift of SPR signal (λSPR) after bovine serum exposure and PBS rinse” value is reported as “less than 1 nm”.

Same assay, conditions: bovine serum on peptide SAM; Table II

Point of comparison: “3-MPA-SHDSHD-OH (N-terminal 3-mercaptopropionic acid)”, ΔΓnonspecific 17 ± 14 ng/cm^2. Against it:
- 3-MPA-DSDSD-OH (N-terminal 3-mercaptopropionic acid) — within error, 34 ± 31 ng/cm^2
- 3-MPA-LLHHDD-OH (N-terminal 3-mercaptopropionic acid) — higher, 174 ± 120 ng/cm^2
- 3-MPA-GGHHDD-OH (N-terminal 3-mercaptopropionic acid) — higher, 149 ± 100 ng/cm^2
- 3-MPA-LHDLHD-OH (N-terminal 3-mercaptopropionic acid) — within error, 12 ± 11 ng/cm^2

Same assay, conditions: relative to Table I peptides

With “3-MPA-LHDLHD-OH (N-terminal 3-mercaptopropionic acid)” the “Reduction in nonspecific adsorption relative to binary peptide SAM” value was 2 factor.

Same assay, conditions: undiluted adult bovine serum on peptide SAM; Table I; average of four replicates

Point of comparison: “3-MPA-LLLSS (N-terminal 3-mercaptopropionic acid)”, “Nonspecific adsorption ΔΓnonspecific” value 39 ng/cm^2. Against it:
- 3-MPA-LLLDD (N-terminal 3-mercaptopropionic acid) — lower, 35 ng/cm^2
- 3-MPA-LLLHH (N-terminal 3-mercaptopropionic acid) — higher, 45 ng/cm^2
- 3-MPA-SSSHH (N-terminal 3-mercaptopropionic acid) — higher, 79 ng/cm^2
- 3-MPA-HHHSS (N-terminal 3-mercaptopropionic acid) — higher, 48 ng/cm^2
- 3-MPA-DDDHH (N-terminal 3-mercaptopropionic acid) — higher, 56 ng/cm^2
- 3-MPA-SSSDD (N-terminal 3-mercaptopropionic acid) — lower, 23 ng/cm^2
- 3-MPA-DDDSS (N-terminal 3-mercaptopropionic acid) — higher, 69 ng/cm^2
- 3-MPA-HHHDD-OH (N-terminal 3-mercaptopropionic acid) — lower, 32 ng/cm^2

From patent publication US8680233B2, “Heteropeptides useful for reducing nonspecific adsorption” (Valorisation-Recherche, Limited Partnership, priority 2009, dated 2014)
